Measured values as given in publication PMC6116281.
These are yes or no findings as the source states them, for the method shown. Where a sequence is shown, tags or fusion partners need not be part of it.

Sequences of proteins named here, by UniProt entry; tags and fusion partners are left off. A change or cut given only in a name is not applied to a line headed by its entry.
UniProt P24814: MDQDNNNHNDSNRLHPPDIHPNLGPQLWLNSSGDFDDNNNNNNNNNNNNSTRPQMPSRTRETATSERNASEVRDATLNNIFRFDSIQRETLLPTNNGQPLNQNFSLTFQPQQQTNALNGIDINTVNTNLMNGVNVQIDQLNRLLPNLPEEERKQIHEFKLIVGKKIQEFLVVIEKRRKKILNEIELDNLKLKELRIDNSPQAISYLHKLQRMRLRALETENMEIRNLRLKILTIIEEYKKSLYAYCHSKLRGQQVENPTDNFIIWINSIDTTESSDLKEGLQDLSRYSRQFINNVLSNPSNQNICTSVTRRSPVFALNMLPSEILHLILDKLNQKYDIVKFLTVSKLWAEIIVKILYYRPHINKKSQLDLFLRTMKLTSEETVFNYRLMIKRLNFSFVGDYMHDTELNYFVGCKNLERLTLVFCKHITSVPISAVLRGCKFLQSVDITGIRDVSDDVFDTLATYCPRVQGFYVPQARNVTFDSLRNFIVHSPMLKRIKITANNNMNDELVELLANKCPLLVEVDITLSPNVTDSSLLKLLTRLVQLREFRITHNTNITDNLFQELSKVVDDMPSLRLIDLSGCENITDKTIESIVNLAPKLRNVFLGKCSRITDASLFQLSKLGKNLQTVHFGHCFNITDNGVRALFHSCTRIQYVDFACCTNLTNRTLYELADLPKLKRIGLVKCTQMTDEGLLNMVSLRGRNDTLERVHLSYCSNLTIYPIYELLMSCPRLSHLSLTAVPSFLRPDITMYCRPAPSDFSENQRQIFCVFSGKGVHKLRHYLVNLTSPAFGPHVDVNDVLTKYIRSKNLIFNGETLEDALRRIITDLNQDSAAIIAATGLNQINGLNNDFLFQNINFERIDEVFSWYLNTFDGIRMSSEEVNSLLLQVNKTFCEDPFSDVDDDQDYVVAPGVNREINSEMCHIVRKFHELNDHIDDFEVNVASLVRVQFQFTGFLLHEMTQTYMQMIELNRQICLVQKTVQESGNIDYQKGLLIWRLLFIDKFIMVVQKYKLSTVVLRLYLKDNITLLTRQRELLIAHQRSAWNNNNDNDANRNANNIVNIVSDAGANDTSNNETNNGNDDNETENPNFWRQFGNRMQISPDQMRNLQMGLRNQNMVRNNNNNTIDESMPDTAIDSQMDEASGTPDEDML

Biological target: grr1∆F∆L mutant, Gal4 binding domain bait (S. cerevisiae) (UniProt P24814)
Assay: two-hybrid; Gal4 yeast two-hybrid in PJ69-4a cells; Med13 fragment on the Gal4 activating domain (prey), bait on the binding domain; growth on -TRP, -LEU, -HIS, -ADE medium (dual HIS3 and ADE2 reporter genes)

binding: no binding
B1: Gal4 activating domain Med13^571-650 fusion protein (domain or fragment, UniProt P38931 571-650)
chain: KRKYLDIPIDEMTLPTSPLYMDPGAPLPVETPRDRRKSVFAPLNFNPIIENNVDNKYKSGGKFSFSPLQKEEALNFDISM
